For this assay, the target named is Flag-Sox11 Δ117–214 (rat) (UniProt P0C1G9). The assay can be described thus: co-IP; HEK 293FT lysates (NP-40 buffer); flag-sox11 deletion mutants immunoprecipitated with anti-flag on Dynabeads, caspase-6 detected with anti-caspase-6.

The chains behind the UniProt entries cited, without tags or fusion partners. Where a name states a change or a piece, a line headed by the entry shows the natural chain unless it says otherwise. A line that says so, or that is headed by a name, gives the form on record, which may keep a tag or linker.
Flag-Sox11 Δ117–214 (P0C1G9, form named): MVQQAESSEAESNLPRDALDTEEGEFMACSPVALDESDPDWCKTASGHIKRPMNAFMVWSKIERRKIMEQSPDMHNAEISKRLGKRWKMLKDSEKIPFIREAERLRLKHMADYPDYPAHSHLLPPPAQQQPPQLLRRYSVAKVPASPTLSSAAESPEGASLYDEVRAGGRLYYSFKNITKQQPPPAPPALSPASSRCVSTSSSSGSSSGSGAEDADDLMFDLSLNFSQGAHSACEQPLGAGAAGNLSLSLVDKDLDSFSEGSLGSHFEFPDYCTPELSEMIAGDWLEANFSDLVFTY

Substitutions are numbered along the chain they refer to. Names may count otherwise. Results are given in words; binding and its absence hold for the method and conditions named. Binding seen in cells or lysates may run through a third protein. Some entries that bind do so weakly or less than the wild type.

B1: caspase-6 C163A (full length, in HEK 293FT cells) (enzyme, UniProt P55212 1-293)
chain: MSSASGLRRGHPAGGEENMTETDAFYKREMFDPAEKYKMDHRRRGIALIFNHERFFWHLTLPERRGTCADRDNLTRRFSDLGFEVKCFNDLKAEELLLKIHEVSTVSHADADCFVCVFLSHGEGNHIYAYDAKIEIQTLTGLFKGDKCHSLVGKPKIFIIQAARGNQHDVPVIPLDVVDNQTEKLDTNITEVDAASVYTLPAGADFLMCYSVAEGYYSHRETVNGSWYIQDLCEMLGKYGSSLEFTELLTLVNRKVSQRRVDFCKDPSAIGKKQVPCFASMLTKKLHFFPKSN
For B1, the binding entry is recorded as “binds”.

B2: procaspase-6 (wild type, full length caspase-6) (enzyme, UniProt P55212 1-293)
chain: B1 chain with A163C
Consider B2, for which the binding result is reported as “binds”.
